No constants are given. Whether binding was seen depends on the method and setting. In cells and extracts the contact can be indirect. A yes stands for co-enrichment or nearness to the bait. Other partners may have been found.

Amino acid sequences for entries named in this document (tags omitted). Residues count along the entry.
UniProt P01275, residues 53-81: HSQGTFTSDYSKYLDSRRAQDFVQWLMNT

B1: Stathmin1 (protein, UniProt P54227 1-149)
chain: MASSDIQVKELEKRASGQAFELILSPRSKESVPDFPLSPPKKKDLSLEEIQKKLEAAEERRKSHEAEVLKQLAEKREHEKEVLQKAIEENNNFSKMAEEKLTHKMEANKENREAQMAAKLERLREKDKHVEEVRKNKESKDPADETEAD
B2: Chromogranin A (protein, UniProt P26339 19-463)
chain: LPVNSPMTKGDTKVMKCVLEVISDSLSKPSPMPVSPECLETLQGDERILSILRHQNLLKELQDLALQGAKERAQQPLKQQQPPKQQQQQQQQQQQEQQHSSFEDELSEVFENQSPDAKHRDAAAEVPSRDTMEKRKDSDKGQQDGFEATTEGPRPQAFPEPNQESPMMGDSESPGEDTATNTQSPTSLPSQEHVDPQATGDSERGLSAQQQARKAKQEEKEEEEEEEAVAREKAGPEEVPTAASSSHFHAGYKAIQKDDGQSDSQAVDGDGKTEASEALPSEGKGELEHSQQEEDGEEAMVGTPQGLFPQGGKGRELEHKQEEEEEEEERLSREWEDKRWSRMDQLAKELTAEKRLEGEDDPDRSMKLSFRTRAYGFRDPGPQLRRGWRPSSREDSVEARSDFEEKKEEEGSANRRAEDQELESLSAIEAELEKVAHQLQALRRG
B3: Peroxiredoxin-2 (protein, UniProt Q61171 1-198)
chain: MASGNAQIGKSAPDFTATAVVDGAFKEIKLSDYRGKYVVLFFYPLDFTFVCPTEIIAFSDHAEDFRKLGCEVLGVSVDSQFTHLAWINTPRKEGGLGPLNIPLLADVTKSLSQNYGVLKNDEGIAYRGLFIIDAKGVLRQITVNDLPVGRSVDEALRLVQAFQYTDEHGEVCPAGWKPGSDTIKPNVDDSKEYFSKHN
B4: Aconitate hydratase, mitochondrial (protein, UniProt Q99KI0 28-780)
chain: QRAKVAMSHFEPSEYIRYDLLEKNINIVRKRLNRPLTLSEKIVYGHLDDPANQEIERGKTYLRLRPDRVAMQDATAQMAMLQFISSGLPKVAVPSTIHCDHLIEAQVGGEKDLRRAKDINQEVYNFLATAGAKYGVGFWRPGSGIIHQIILENYAYPGVLLIGTDSHTPNGGGLGGICIGVGGADAVDVMAGIPWELKCPKVIGVKLTGSLSGWTSPKDVILKVAGILTVKGGTGAIVEYHGPGVDSISCTGMATICNMGAEIGATTSVFPYNHRMKKYLSKTGRTDIANLAEEFKDHLVPDPGCQYDQVIEINLNELKPHINGPFTPDLAHPVADVGTVAEKEGWPLDIRVGLIGSCTNSSYEDMGRSAAVAKQALAHGLKCKSQFTITPGSEQIRATIERDGYAQILRDVGGIVLANACGPCIGQWDRKDIKKGEKNTIVTSYNRNFTGRNDANPETHAFVTSPEIVTALAIAGTLKFNPETDFLTGKDGKKFKLEAPDADELPRSDFDPGQDTYQHPPKDSSGQRVDVSPTSQRLQLLEPFDKWDGKDLEDLQILIKVKGKCTTDHISAAGPWLKFRGHLDNISNNLLIGAINIENGKANSVRNAVTQEFGPVPDTARYYKKHGIRWVVIGDENYGEGSSREHAALEPRHLGGRAIITKSFARIHETNLKKQGLLPLTFADPSDYNKIHPVDKLTIQGLKDFAPGKPLKCVIKHPNGTQETILLNHTFNETQIEWFRAGSALNRMKELQQ
B5: ELKS/Rab6-interacting/CAST family member 1 (protein, UniProt Q99MI1 1-1120)
chain: MYGSARSVGKVEPSSQSPGRSPRLPRSPRLGHRRTNSTGGSSGNSVGGGSGKTLSMENIQSLNAAYATSGPMYLSDHENVGAETPKSTMTLGRSGGRLPYGVRMTAMGSSPNIASSGVASDTIAFGEHHLPPVSMASTVPHSLRQARDNTIMDLQTQLKEVLRENDLLRKDVEVKESKLSSSMNSIKTFWSPELKKERALRKDEASKITIWKEQYRVVQEENQHMQMTIQALQDELRIQRDLNQLFQQDSSSRTGEPCVAELTEENFQRLHAEHERQAKELFLLRKTLEEMELRIETQKQTLNARDESIKKLLEMLQSKGLSAKATEEDHERTRRLAEAEMHVHHLESLLEQKEKENNMLREEMHRRFENAPDSAKTKALQTVIEMKDSKISSMERGLRDLEEEIQMLKSNGALSSEEREEEMKQMEVYRSHSKFMKNKVEQLKEELSSKDAQGEELKKRAAGLQSEIGQVKQELSRKDTELLALQTKLETLTNQFSDSKQHIEVLKESLTAKEQRAAILQTEVDALRLRLEEKETMLNKKTKQIQDMAEEKGTQAGEIHDLKDMLDVKERKVNVLQKKIENLQEQLRDKEKQMSSLKERVKSLQADTTNTDTALTTLEEALADKERTIERLKEQRDRDEREKQEEIDTYKKDLKDLREKVSLLQGDLSEKEASLLDIKEHASSLASSGLKKDSRLKTLEIALEQKKEECLKMESQLKKAHEATLEARASPEMSDRIQQLEREISRYKDESSKAQTEVDRLLEILKEVENEKNDKDKKIAELESLTSRQVKDQNKKVANLKHKEQVEKKKSAQMLEEARRREDSLSDSSQQLQDSLRKKDDRIEELEEALRESVQITAEREMVLAQEESARTNAEKQVEELLMAMEKVKQELESMKAKLSSTQQSLAEKETHLTNLRAERRKHLEEVLEMKQEALLAAISEKDANIALLELSSSKKKTQEEVAALKREKDRLVQQLKQQTQNRMKLMADNYEDDHFRSSRSNQTNHKPSPDQIIQPLLELDQNRSKLKLYIGHLTALCHDRDPLILRGLTPPASYNADGEQAAWENELQQMTQEQLQNELEKVEGDNAELQEFANTILQQIADHCPDILEQVVNALEESS
B6: secretogranin 2 (protein, UniProt Q03517 31-617)
chain: QRNQLLQKEPDLRLENVQKFPSPEMIRALEYIEKLRQQAHREESSPDYNPYQGVSVPLQLKENGEESHLAESSRDALSEDEWMRIILEALRQAENEPPSAPKENKPYALNLEKNFPVDTPDDYETQQWPERKLKHMRFPLMYEENSRENPFKRTNEIVEEQYTPQSLATLESVFQELGKLTGPSNQKRERVDEEQKLYTDDEDDVYKTNNIAYEDVVGGEDWSPIEEKIETQTQEEVRDSKENTEKNEQINEEMKRSGQLGLPDEENRRESKDQLSEDASKVITYLRRLVNAVGSGRSQSGPNGDRAARLLQKPLDSQSIYQLIEISRNLQIPPEDLIEMLKAGEKPNGLVEPEQDLELAVDLDDIPEADLDRPDMFQSKMLSKGGYPKAPGRGMVEALPDGLSVEDILNVLGMENVVNQKSPYFPNQYSQDKALMRLPYGPGKSRANQIPKVAWIPDVESRQAPYENLNDQELGEYLARMLVKYPELLNTNQLKRVPSPVSSEDDLQEEEQLEQAIKEHLGPGSSQEMERLAKVSKRIPVGSLKNEDTPNRQYLDEDMLLKVLEYLNQEQAEQGREHLAKRAMENM
B7: FXYD domain-containing ion transport regulator 2 (protein, UniProt Q04646 1-70)
chain: MAGEISDLSANSGGSAKGTENPFEYDYETVRKGGLIFAGLAFVVGLLIILSKRFRCGGGKKHRQVNEDEL

The test has as its target Fc-glucagon (human) (UniProt P01275). As to the kind of experiment: affinity purification with mass spectrometry; Fc-glucagon expressed in α-TC1-6 cells, captured on Protein A-Sepharose from non-ionic lysate of enriched secretory granules, overnight at 4°C; 7 M urea elution; LC-MS/MS; proteins found with Fc alone subtracted; cells in 25 or 5.5 mM glucose, with or without GABA (25 μM), insulin (100 pM) or both for 24 h.
Take B1: the binding result is on record as “binds”.

On to B2, for which the binding result was “binds”.

In the case of B3, the binding entry is listed as “binds”.

B4: the binding result was “binds”.

B5: the binding result is “binds”.

Turning to B6, the binding result is listed as “binds”.

Regarding B7, the binding entry is “binds”.

These data come from article PMC6346685.
